# Binding screen against folded nucleic acids

Oligonucleotides screened, 5′ to 3′:
T1: PreQ1 riboswitch RNA pseudoknot, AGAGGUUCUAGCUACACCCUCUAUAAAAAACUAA. From B. subtilis. Hit rate about 0.7% of about 24,000 compounds.
T2: SAM-II riboswitch RNA pseudoknot, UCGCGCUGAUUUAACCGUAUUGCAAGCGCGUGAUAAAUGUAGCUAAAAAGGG. Hit rate about 1% of about 21,000 compounds.
T3: TPP riboswitch RNA three-way junction, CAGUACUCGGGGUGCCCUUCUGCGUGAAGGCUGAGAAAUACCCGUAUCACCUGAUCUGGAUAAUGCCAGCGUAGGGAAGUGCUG. Hit rate about 0.7% of about 24,000 compounds.

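Each compound is printed as two spots on a slide made to bind it covalently, so it has no test concentration; the read-out is fluorescence of the bound, labelled oligonucleotide. The data file lists only calls. An earlier report of the laboratory on the PreQ1, TPP and SAM-II riboswitches (doi:10.1038/s41467-019-09493-3) used 1 µM RNA for 2 h and required a mean Z-score above 3 (spot signal-to-noise against the whole library), a score well above that on a control array, and duplicate spots agreeing (coefficient of variation under 100); it then also set aside compounds that hit other targets, which this list keeps. The cut-offs behind this list may differ. The calls come from the array alone, and fixing a compound to the slide can hide its binding.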 A compound is marked yes if it was called a hit and no if it was screened but was not. This is an unselected part of the compounds tested. A dash means that no call is listed here.

| # | Compound | T1 | T2 | T3 |
|---|---|---|---|---|
| 1 | `CCN(CC)C(Cn1cnc2sc3c(c2c1=O)CCNC3)c1ccco1` (stereo unspecified) | no | no | no |
| 2 | `O=C(COc1ccc(-n2cnnn2)cc1)N1CCCC2(CCNCC2)CC1` | no | no | no |
| 3 | `COc1cc([C@@H]2c3cc4c(cc3[C@H](O)[C@H]3COC(=O)[C@H]23)OCO4)cc(OC)c1OC` | no | no | no |
| 4 | `COc1nc2c(cc1C(=O)N1CCCN([C@H]3COC[C@@H]3O)CC1)CCC2` | no | no | no |
| 5 | `COCCCNCCOc1ccc(Cl)cc1C.O=C(O)C(=O)O` | no | no | no |
| 6 | `Cc1cc(NCc2ccccn2)n2nc(-c3ccccc3)c(C)c2n1` | no | - | no |
| 7 | `NC(=O)C1(N2CCCCC2)CCN(Cc2cc3n(n2)CCNC3)CC1` | no | no | no |
| 8 | `Cc1cccc(N2C(N)=C(C#N)C(c3ccsc3)C3=C2CC(C)(C)CC3=O)c1` (stereo unspecified) | no | no | no |
| 9 | `c1ccc(-n2cnc3cc(NCc4ccco4)ccc32)cc1` | no | no | no |
| 10 | `CCCN(CCC)CC(O)COc1ccc2ccccc2c1` (stereo unspecified) | no | no | no |
| 11 | `O=C(C1CCOCC1)N1CCN(Cc2ccco2)CC(O)C1` (stereo unspecified) | no | no | no |
| 12 | `O=C1CCC2(CCN(Cc3ccoc3)CC2)CN1CCCO` | no | no | no |
| 13 | `CCC(C)Nc1nc(N(C)C)nc(-n2cnc(SC)n2)n1` (stereo unspecified) | no | - | no |
| 14 | `Nc1nc(CCC(=O)O)cs1` | no | no | no |
| 15 | `CCN(C(=O)c1cnn(C(C)C)c1)C(C)CO` (stereo unspecified) | no | no | no |
| 16 | `COc1ccc2c(c1)OC[C@]1(CO)CN(c3ccnc(OC)c3C#N)C[C@H]21` | no | no | no |
| 17 | `Clc1ccc(-c2ccc(CNCc3ccccn3)o2)cc1` | no | - | no |
| 18 | `Cc1nc(C(C)C)sc1C(=O)N1CCN[C@H]2CS(=O)(=O)C[C@H]21` | no | no | no |
| 19 | `CC(C)(C)NC(=O)CSc1nc(N)c(C#N)cc1C#N` | yes | no | no |
| 20 | `N#Cc1cnn(-c2ccc3ccccc3c2)c1N` | no | no | no |
| 21 | `CCOc1ccc(C2C(C#N)=C(N)OC3=C2S(=O)(=O)N(Cc2ccccc2C)c2ccccc23)cc1` (stereo unspecified) | no | - | no |
| 22 | `CN(Cc1nc(-c2ccccc2)no1)C(=O)c1ccc(CO)o1` | no | no | no |
| 23 | `O=C(Nc1cccc2c1N(C(=O)c1ccco1)CCC2)c1ccco1` | no | no | no |
| 24 | `CC1CC(C)(C)N2C(=O)C3(NC(=O)c4ccccc4N3)c3cccc1c32` (stereo unspecified) | no | no | no |
| 25 | `Cc1nc(CCN)cc(N2CCN(c3ccccc3Cl)CC2)n1` | no | yes | yes |
| 26 | `Cc1cc(C)c2c3c(sc2n1)C1(CCOCC1)C(C#N)=C(N)O3` | no | no | no |
| 27 | `C#CC(C)OCC1CNC(=S)O1` (stereo unspecified) | no | no | no |
| 28 | `O=C1CCCC2=C1C(c1ccc(F)cc1)Nc1ccc3ncccc3c12` (stereo unspecified) | no | no | no |
| 29 | `CC(C)c1nc2sc3c(NCCCN(C)C)ncnc3c2c2c1CCCC2` | no | no | no |
| 30 | `N#CC1=C(N)OC2=C(C(=O)CCC2)C1c1ccc(OC(=O)c2ccccc2)cc1` (stereo unspecified) | no | no | no |
| 31 | `CCS(=O)(=O)N1CCN(c2cc(N3CCOCC3)nc(N)n2)CC1` | no | no | no |
| 32 | `Cc1cc(C(=O)N2CCOCC(O)C2)c2ccc(C)c(C)c2n1` (stereo unspecified) | no | no | no |
| 33 | `Cc1[nH]c(C=C2C(=O)Nc3ccccc32)c(C)c1CCC(=O)O` | no | no | no |
| 34 | `CCOC(=O)c1cc2c(=O)n3cccc(C)c3nc2n(CCO)c1=N` | no | no | no |
| 35 | `CSCCC(C)NCCn1c(C)cc(C)nc1=O` (stereo unspecified) | no | no | no |
| 36 | `c1cncc(-c2noc(Cn3ccnc3-c3cc4n(n3)CCCNC4)n2)c1` | no | no | no |
| 37 | `Cc1nnc(-c2ccc(O)c(N)c2)o1` | no | no | no |
| 38 | `CCC(CO)NC(=O)C1C=C2c3cccc4[nH]cc(c34)CC2N(C)C1` (stereo unspecified) | no | no | no |
| 39 | `C1CN(C23CC4CC(CC(C4)C2)C3)CCN1` | no | no | no |
| 40 | `C=CCOC(=O)C1=C(C)OC(N)=C(C#N)C1c1cccc(Cl)c1` (stereo unspecified) | no | no | no |
| 41 | `S=c1[nH]c2ccccc2c2ccccc12` | no | no | no |
| 42 | `CCOC(=O)C1=C(N)Oc2c(oc(CO)cc2=O)C1c1ccc(F)cc1F` (stereo unspecified) | no | no | no |
| 43 | `Cc1cncc2cccc(S(=O)(=O)N3CCCN(C(=O)CN)C[C@@H]3C)c12` | no | no | no |
| 44 | `CC(C)[N+]1(C)C2CCC1CC(OC(=O)C(CO)c1ccccc1)C2.O.[Br-]` (stereo unspecified) | no | no | no |
| 45 | `Cn1c(=O)[nH]c(=O)c2c1nc(CN1CCOCC1)n2CCCO` | no | no | no |
| 46 | `COc1ccc(Br)cc1CN1CCC(N2CCN(CCO)CC2)CC1` | no | no | no |
| 47 | `COc1cc2c(cc1Cc1cccc(Cl)c1F)c(=O)c(C(=O)O)cn2[C@H](CO)C(C)C` | no | no | no |
| 48 | `CO[C@@]1(C)C[C@@H](O)C12CCN(C(=O)CN(C)c1ccccc1)CC2` | no | no | no |
| 49 | `CSc1ccc(CN(CCO)C(=O)c2ccc(-c3cc[nH]n3)cc2)cc1` | no | no | no |
| 50 | `CN(C)c1cncc(N2CC[C@@]3(O)CCNC[C@H]3C2)n1` | no | no | no |
| 51 | `COCCOC(=O)C1=C(N)Oc2c(oc(CO)cc2=O)C1c1ccccc1F` (stereo unspecified) | no | no | no |
| 52 | `CCOC(=O)CNC1CC(=O)N(c2ccc(F)cc2)C1=O` (stereo unspecified) | no | no | no |
| 53 | `O=C(NCc1ccccc1Cl)c1nn(-c2ccccc2F)nc1CO` | no | - | no |
| 54 | `COc1cc(NC(=O)C(=O)NCCN2CCNCC2)c(OC)cc1Cl` | no | yes | no |
| 55 | `CCCCCCCCCCCCCCCC(=O)OC[C@@H](NC(=O)C(Cl)Cl)[C@H](O)c1ccc([N+](=O)[O-])cc1` | no | no | no |
| 56 | `COC(=O)c1cc(N)c2oc(Cc3ccccc3)nc2c1` | no | no | no |
| 57 | `CNCc1nonc1C` | no | no | no |
| 58 | `Nc1nc(COc2ccccc2Cl)nc(N2CCCCC2)n1` | no | no | no |
| 59 | `CCOC(=O)c1c(N)sc(C(=O)OC)c1C` | no | no | no |
| 60 | `CCC(NC(=O)C1(N)CC1)c1ccc(OC)cc1` (stereo unspecified) | no | no | no |
| 61 | `CCOc1ccc([C@@H]2C[C@H](c3ccc(OC)cc3)n3nc(N)nc3N2)cc1` | no | no | no |
| 62 | `OC1Cc2ccccc2C12CCN(Cc1ccc(-n3ccnc3)cc1)CC2` (stereo unspecified) | no | no | no |
| 63 | `CNc1nc2c(-c3ccc(Cl)cc3)nnn2c2ccccc12` | no | no | no |
| 64 | `CCn1cnnc1CCNc1nc(C2CCCC2)nc2c1CNC2` | no | no | no |
| 65 | `Cc1nc(CN2CCC3(CC2)[C@H](O)C[C@@H]3OCCO)sc1C` | no | no | no |

The last 8 entries again:

Compound	T1	T2	T3
Nc1nc(COc2ccccc2Cl)nc(N2CCCCC2)n1	no	no	no
CCOC(=O)c1c(N)sc(C(=O)OC)c1C	no	no	no
CCC(NC(=O)C1(N)CC1)c1ccc(OC)cc1 (stereo unspecified)	no	no	no
CCOc1ccc([C@@H]2C[C@H](c3ccc(OC)cc3)n3nc(N)nc3N2)cc1	no	no	no
OC1Cc2ccccc2C12CCN(Cc1ccc(-n3ccnc3)cc1)CC2 (stereo unspecified)	no	no	no
CNc1nc2c(-c3ccc(Cl)cc3)nnn2c2ccccc12	no	no	no
CCn1cnnc1CCNc1nc(C2CCCC2)nc2c1CNC2	no	no	no
Cc1nc(CN2CCC3(CC2)[C@H](O)C[C@@H]3OCCO)sc1C	no	no	no

Calls as published in the ROBIN set (doi:10.1002/anie.202211358).